Test results as given in patent publication US20140356854A1, “METHODS AND COMPOSITIONS RELATING TO MEVALONATE PHOSPHATE DECARBOXYLASE” (Salk Institute for Biological Studies, priority 2013, published 2014).
At least one read-out could not be matched to a standard name with certainty.

Tests used:
Type in all cases: biochemical
PMK from B. floridae = biological target: T1, PMK from B. floridae (Branchiostoma floridae, UniProt C3Y1G0); test: Steady-state kinetics, coupled assay, PMK; details: substrate MVAP
T1 sequence (C3Y1G0 1-201): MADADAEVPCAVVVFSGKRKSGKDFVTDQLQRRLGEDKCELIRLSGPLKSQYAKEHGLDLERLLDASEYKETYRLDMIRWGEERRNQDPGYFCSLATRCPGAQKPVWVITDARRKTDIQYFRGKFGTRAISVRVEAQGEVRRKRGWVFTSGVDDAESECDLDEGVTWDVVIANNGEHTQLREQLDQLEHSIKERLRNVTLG

[1] = test system: MPD from R. castenholzii (SEQ ID NO: 1); test: Steady-state kinetics, coupled assay, MPD; details: substrate MVAP
Method: Instead, it behaves as an MPD and catalyzes the decarboxylation of MVAP (3) to IP (4) with a kcat of 0.94 s^−1 and an apparent KM for MVAP of 1.150 mM (Table 2). This enzyme, by sequence homologous to MDD, has acquired an unexpected new function as a bona fide MPD playing the role of the long sought MPD of the alternative MVA pathway.
Steady-state kinetic analyses.

PMK from S. solfataricus = biological target: T2, PMK from S. solfataricus (Saccharolobus solfataricus, UniProt Q97UL6); test: Steady-state kinetics, coupled assay, PMK; details: substrate MVAP
T2 sequence (Q97UL6 1-323): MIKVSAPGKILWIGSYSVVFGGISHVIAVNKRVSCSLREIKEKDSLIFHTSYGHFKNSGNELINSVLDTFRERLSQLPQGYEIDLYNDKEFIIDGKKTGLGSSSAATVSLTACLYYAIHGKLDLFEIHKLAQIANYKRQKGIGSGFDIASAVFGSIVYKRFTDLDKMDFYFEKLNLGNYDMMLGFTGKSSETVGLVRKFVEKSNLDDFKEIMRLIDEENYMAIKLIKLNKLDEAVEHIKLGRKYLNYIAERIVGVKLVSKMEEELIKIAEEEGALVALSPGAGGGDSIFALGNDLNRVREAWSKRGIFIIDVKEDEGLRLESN

MDD from B. floridae = biological target: T3, MDD from B. floridae (Branchiostoma floridae, UniProt C3ZGP5); test: Steady-state kinetics, coupled assay, MDD; details: substrate MVAPP
T3 sequence (C3ZGP5 1-409): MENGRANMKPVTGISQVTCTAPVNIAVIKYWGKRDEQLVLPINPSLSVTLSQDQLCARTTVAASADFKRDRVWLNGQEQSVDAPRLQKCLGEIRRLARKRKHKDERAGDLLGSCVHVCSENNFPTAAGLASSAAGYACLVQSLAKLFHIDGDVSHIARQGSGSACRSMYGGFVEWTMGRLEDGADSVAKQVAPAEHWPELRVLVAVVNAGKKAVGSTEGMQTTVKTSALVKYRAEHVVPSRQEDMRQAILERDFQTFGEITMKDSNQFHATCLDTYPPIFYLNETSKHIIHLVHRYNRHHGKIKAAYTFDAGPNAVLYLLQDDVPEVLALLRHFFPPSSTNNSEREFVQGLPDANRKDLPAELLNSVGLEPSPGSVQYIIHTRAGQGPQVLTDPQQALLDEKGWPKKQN

In the case of `CC(O)(CCOP(=O)(O)O)CC(=O)O` (stereo not shown) [MVAP, phosphomevalonate], the kcat/KM (PMK from B. floridae) is reported as 0.33 (±0.06) s^−1μM^−1, the kcat/KM [1] is reported as 0.0008 (±0.0001) s^−1μM^−1 and the kcat/KM (PMK from S. solfataricus) is reported as 0.09 (±0.01) s^−1μM^−1.
`CC(O)(CCOP(=O)(O)OP(=O)(O)O)CC(=O)O` (racemic) [MVAPP, diphosphomevalonate] was tested, and the kcat/KM (MDD from B. floridae) was 0.09 (±0.02) s^−1μM^−1.
